The experiment addresses non-metastatic 2 (NME2) (human (endogenous in HT1080)) (UniProt P22392). Kind of experiment: affinity purification with mass spectrometry; immunoprecipitation with anti-NME2 antibody from nuclear extract of HT1080 cells, SDS-PAGE bands, LC-MS/MS, 1% false discovery rate.

Protein sequences, listed by entry. Tags and fused reporters are not part of them.
UniProt P22392: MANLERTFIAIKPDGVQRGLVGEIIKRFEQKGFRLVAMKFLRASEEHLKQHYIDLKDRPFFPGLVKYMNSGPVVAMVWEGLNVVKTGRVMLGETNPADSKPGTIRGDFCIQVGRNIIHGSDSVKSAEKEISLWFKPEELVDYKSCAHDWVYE
UniProt Q13547: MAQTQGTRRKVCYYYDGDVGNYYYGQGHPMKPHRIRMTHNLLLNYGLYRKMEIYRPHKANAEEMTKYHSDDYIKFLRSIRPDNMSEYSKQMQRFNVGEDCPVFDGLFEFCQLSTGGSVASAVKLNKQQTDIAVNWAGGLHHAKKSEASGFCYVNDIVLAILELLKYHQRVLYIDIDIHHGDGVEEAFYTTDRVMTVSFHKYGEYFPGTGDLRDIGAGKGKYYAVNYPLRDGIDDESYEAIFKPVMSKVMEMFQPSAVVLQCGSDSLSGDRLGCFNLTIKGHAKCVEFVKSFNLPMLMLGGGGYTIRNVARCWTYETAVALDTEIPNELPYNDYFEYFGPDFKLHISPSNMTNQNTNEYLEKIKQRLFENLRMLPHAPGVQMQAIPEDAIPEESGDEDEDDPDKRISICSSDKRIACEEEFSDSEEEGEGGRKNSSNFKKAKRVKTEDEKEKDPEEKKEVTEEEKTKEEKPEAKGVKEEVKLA

Results are given in words; binding and its absence hold for the method and conditions named. Binding seen in cells or lysates may run through a third protein. A yes stands for co-enrichment or nearness to the bait. Other partners may have been found.

The text below walks through data of paper PMC5602382.

HDAC1 (from UniProt Q13547 1-482): the binding result is listed as “binds”.
